The source of these data is paper PMC4118958.

By UniProt entry, the sequences of proteins in these tests, tags left out. Where a name states a change or a piece, a line headed by the entry shows the natural chain unless it says otherwise.
UniProt Q92878: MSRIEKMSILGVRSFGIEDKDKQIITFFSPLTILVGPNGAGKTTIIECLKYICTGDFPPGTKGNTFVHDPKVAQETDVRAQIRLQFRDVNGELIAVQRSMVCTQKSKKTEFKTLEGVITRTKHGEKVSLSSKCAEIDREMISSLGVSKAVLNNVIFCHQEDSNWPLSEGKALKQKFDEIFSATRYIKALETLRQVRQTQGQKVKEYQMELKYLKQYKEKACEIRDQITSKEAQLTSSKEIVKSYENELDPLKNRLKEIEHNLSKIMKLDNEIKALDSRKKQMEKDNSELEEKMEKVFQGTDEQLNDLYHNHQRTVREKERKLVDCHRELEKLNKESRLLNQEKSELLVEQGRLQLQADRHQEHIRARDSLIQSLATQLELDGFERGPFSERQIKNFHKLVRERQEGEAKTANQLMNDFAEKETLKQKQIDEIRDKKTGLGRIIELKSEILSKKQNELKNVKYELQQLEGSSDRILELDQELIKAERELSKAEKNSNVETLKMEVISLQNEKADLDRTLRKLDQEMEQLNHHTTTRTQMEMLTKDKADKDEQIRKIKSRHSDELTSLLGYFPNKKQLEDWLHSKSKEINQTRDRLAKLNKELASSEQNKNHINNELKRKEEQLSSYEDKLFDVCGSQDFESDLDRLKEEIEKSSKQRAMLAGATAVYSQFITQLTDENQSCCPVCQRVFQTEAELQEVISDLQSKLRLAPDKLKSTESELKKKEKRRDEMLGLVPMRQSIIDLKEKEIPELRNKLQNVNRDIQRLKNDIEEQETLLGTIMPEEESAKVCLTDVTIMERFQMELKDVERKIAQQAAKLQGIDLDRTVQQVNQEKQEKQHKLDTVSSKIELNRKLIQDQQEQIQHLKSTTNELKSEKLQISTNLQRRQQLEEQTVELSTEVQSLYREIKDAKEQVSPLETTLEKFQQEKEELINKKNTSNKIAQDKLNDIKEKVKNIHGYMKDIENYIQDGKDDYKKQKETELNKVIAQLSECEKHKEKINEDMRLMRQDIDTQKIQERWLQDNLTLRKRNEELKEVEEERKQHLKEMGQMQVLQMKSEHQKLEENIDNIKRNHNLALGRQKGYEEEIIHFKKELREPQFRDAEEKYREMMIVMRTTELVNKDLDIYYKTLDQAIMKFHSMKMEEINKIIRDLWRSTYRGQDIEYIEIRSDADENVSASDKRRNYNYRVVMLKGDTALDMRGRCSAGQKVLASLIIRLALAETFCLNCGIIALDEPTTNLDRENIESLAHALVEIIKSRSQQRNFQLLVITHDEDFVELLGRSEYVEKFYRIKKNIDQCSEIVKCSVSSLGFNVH
UniProt P38398: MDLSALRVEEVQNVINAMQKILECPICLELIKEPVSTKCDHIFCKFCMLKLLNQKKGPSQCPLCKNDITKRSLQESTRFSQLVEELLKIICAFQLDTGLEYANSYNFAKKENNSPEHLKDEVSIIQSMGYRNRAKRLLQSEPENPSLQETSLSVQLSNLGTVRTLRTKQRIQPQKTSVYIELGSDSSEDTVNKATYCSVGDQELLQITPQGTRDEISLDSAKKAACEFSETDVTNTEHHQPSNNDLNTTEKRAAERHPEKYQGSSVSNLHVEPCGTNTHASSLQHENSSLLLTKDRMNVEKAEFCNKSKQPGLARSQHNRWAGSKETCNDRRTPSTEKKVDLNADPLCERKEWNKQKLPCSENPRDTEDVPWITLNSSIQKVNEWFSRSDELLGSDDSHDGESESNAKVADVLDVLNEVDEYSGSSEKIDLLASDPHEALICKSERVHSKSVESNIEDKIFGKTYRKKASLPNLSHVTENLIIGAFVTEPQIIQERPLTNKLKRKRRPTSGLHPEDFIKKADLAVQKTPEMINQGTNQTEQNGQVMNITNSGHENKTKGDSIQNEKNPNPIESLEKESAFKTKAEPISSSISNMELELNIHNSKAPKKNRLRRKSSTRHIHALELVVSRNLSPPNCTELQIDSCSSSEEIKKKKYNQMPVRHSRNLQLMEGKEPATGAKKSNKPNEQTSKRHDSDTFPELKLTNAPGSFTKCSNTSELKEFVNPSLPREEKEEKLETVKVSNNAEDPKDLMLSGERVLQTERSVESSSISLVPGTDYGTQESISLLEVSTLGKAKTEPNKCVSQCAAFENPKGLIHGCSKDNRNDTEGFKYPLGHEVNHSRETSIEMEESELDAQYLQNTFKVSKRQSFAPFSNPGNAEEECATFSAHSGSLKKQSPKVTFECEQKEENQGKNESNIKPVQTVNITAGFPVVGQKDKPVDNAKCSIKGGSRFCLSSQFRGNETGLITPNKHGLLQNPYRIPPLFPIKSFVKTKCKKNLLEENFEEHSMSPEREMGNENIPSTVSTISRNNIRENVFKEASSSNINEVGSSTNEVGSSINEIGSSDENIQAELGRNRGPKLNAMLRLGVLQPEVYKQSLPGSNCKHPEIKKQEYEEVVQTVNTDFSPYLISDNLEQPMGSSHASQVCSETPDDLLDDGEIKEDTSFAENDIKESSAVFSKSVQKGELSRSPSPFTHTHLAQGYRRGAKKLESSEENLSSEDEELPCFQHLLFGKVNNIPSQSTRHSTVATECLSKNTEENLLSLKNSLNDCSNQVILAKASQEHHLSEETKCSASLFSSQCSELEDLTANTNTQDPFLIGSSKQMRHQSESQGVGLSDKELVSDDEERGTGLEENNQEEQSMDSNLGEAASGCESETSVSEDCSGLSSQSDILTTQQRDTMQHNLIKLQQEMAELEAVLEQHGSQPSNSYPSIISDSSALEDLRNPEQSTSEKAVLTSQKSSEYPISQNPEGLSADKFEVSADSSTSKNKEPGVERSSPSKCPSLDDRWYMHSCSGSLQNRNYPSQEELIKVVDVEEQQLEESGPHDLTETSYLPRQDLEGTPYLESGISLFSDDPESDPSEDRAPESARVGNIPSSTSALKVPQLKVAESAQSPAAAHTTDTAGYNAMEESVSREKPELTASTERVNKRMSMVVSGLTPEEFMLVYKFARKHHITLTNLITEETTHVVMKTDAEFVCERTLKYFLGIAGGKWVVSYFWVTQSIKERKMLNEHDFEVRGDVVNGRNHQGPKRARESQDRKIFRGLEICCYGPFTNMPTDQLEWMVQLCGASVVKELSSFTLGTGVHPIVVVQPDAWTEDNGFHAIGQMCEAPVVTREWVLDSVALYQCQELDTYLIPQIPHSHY
UniProt P54132: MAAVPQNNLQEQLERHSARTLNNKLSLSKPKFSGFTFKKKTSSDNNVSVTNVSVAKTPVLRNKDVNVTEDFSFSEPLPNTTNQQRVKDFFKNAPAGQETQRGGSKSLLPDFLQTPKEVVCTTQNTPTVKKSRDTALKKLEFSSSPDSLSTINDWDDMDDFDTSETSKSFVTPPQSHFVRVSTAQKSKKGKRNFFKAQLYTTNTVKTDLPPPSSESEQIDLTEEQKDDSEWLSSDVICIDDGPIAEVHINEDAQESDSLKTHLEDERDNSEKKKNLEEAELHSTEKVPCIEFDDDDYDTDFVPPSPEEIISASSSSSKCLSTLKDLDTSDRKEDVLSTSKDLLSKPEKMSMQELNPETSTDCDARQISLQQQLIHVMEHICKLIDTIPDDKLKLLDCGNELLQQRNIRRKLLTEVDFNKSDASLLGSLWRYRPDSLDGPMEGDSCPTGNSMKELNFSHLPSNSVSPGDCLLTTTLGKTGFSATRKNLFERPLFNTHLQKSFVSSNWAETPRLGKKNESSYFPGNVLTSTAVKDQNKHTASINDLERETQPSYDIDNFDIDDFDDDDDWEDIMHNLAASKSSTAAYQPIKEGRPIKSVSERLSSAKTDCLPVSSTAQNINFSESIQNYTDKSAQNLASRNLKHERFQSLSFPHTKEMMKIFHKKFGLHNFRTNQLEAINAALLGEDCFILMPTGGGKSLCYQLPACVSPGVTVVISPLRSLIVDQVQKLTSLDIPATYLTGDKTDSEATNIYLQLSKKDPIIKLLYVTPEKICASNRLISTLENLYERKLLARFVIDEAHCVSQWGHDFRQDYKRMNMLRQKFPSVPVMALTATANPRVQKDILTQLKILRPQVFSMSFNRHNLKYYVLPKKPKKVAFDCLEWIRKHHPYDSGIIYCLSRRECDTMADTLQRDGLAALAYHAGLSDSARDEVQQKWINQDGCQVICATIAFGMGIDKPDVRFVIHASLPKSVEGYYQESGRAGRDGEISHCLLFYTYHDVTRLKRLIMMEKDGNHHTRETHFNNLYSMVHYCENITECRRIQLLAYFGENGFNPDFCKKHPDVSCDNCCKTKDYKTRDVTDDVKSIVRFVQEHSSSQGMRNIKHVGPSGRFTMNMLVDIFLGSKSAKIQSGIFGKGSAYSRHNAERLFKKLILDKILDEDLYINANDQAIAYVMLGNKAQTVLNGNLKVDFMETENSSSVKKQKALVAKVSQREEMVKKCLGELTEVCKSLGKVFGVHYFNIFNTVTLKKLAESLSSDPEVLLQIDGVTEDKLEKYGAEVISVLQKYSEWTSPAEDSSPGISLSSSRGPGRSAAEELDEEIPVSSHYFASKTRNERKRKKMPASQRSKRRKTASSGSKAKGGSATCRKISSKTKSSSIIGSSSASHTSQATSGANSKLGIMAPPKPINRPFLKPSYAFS

Common to all, as to assay: co-IP; endogenous proteins from U2OS lysates (20 µg; unsynchronized or synchronized by double thymidine block to G1, S, G2) in NP40 lysis buffer (50 mM Tris.HCl pH 8.0, 150 mM NaCl, 2 mM EDTA, 1% NP40); anti-BRCA1, anti-BLM or anti-Rad50 on protein-A beads, 4°C; western blot
For orientation: In western blotting, separated proteins are transferred to a membrane and probed.

In assay [1] the target is RAD50 (human (endogenous in U2OS)) (UniProt Q92878).
Assay [2] deals with BRCA1 tumor suppressor (human (endogenous in U2OS)) (UniProt P38398).
Assay [3] addresses BLM helicase, mutated in Bloom's syndrome (human (endogenous in U2OS)) (UniProt P54132).

Results are given in words; binding and its absence hold for the method and conditions named. In cells and extracts the contact can be indirect. Some binding calls cover weakened binding; strength is not graded here.

For the substance “BLM helicase, mutated in Bloom's syndrome (from UniProt P54132 1-1417)”, the binding entry in assay [1] and in assay [2] was “binds” each time.
Consider RAD50 (from UniProt Q92878 1-1312), for which, in assay [3], the binding result is “binds”.
